Laboratory results reported in paper PMC9015699.
These are yes or no findings as the source states them, for the method shown. In cells and extracts the contact can be indirect. Binding calls can cover weak binding; strength is not graded here.

Sequences of proteins named here, by UniProt entry; tags and fusion partners are left off. A change or cut given only in a name is not applied to a line headed by its entry. Residues count along the entry.
UniProt Q99J83: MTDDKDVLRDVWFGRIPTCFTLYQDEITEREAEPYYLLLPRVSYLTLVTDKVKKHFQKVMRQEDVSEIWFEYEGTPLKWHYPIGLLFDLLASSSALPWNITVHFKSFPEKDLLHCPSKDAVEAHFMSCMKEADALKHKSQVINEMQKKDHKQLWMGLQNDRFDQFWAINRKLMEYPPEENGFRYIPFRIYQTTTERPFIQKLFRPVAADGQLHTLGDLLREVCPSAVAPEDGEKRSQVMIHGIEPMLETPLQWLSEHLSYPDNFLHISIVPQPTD
UniProt Q07113, residues 36-2483: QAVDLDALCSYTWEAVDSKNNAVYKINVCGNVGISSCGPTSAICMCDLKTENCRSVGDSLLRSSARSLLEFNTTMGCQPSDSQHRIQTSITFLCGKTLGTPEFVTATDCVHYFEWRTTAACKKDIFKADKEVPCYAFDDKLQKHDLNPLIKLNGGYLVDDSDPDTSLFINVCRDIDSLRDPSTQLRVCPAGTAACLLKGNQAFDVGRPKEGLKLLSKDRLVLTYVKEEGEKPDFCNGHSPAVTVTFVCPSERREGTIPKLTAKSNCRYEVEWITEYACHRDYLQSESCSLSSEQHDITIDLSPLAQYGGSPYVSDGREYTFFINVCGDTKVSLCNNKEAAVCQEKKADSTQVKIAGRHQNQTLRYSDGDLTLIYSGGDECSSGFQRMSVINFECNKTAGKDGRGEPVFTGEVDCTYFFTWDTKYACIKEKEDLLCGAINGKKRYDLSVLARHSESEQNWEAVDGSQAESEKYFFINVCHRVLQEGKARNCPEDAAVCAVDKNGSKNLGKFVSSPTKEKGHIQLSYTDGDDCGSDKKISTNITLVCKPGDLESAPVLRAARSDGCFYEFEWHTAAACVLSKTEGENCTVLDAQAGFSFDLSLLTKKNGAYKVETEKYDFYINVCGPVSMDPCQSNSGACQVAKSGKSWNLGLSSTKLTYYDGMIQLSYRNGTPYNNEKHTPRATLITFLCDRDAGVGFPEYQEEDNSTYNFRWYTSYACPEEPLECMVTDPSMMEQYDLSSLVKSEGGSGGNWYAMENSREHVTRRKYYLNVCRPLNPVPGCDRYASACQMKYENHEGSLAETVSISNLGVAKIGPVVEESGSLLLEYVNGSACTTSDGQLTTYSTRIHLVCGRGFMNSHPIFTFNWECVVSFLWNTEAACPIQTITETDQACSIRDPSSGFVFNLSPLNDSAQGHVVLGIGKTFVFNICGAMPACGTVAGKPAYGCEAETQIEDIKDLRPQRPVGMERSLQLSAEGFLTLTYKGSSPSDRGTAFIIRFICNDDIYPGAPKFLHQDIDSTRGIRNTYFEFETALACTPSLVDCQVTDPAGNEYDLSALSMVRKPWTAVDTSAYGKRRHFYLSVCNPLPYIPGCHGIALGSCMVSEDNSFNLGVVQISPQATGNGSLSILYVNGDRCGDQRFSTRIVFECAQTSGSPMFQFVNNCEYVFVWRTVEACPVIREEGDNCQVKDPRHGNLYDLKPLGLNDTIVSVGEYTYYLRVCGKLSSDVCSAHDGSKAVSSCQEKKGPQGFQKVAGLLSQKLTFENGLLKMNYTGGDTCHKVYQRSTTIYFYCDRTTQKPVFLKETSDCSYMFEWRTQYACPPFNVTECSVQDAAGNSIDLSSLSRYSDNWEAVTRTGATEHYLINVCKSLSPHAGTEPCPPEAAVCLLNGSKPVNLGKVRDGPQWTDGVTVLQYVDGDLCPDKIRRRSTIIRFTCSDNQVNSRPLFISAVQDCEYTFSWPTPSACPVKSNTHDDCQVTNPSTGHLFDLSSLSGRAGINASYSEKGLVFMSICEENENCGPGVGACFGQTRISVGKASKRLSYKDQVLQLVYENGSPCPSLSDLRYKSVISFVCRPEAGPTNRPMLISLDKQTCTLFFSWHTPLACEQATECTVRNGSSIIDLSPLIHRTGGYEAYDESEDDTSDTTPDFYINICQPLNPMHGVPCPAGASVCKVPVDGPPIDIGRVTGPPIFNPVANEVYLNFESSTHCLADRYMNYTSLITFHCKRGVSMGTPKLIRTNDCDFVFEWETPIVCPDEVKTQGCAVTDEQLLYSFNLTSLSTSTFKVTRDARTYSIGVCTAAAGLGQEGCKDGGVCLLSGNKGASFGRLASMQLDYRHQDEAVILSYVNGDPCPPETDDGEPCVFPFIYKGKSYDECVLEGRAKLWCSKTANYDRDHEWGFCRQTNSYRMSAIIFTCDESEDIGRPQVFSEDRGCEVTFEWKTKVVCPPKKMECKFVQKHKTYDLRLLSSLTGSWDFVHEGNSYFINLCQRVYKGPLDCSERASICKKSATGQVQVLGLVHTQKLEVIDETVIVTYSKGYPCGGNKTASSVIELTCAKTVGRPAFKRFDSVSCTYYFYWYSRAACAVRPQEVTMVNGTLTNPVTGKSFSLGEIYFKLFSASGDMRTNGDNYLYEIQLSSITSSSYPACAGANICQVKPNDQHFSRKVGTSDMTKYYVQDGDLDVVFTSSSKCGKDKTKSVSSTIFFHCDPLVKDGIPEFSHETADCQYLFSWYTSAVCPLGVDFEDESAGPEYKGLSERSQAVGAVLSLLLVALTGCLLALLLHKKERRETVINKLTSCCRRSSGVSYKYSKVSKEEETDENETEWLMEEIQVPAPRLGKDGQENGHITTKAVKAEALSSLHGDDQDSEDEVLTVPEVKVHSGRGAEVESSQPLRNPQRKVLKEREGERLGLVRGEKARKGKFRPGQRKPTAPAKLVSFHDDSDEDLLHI
UniProt Q61194: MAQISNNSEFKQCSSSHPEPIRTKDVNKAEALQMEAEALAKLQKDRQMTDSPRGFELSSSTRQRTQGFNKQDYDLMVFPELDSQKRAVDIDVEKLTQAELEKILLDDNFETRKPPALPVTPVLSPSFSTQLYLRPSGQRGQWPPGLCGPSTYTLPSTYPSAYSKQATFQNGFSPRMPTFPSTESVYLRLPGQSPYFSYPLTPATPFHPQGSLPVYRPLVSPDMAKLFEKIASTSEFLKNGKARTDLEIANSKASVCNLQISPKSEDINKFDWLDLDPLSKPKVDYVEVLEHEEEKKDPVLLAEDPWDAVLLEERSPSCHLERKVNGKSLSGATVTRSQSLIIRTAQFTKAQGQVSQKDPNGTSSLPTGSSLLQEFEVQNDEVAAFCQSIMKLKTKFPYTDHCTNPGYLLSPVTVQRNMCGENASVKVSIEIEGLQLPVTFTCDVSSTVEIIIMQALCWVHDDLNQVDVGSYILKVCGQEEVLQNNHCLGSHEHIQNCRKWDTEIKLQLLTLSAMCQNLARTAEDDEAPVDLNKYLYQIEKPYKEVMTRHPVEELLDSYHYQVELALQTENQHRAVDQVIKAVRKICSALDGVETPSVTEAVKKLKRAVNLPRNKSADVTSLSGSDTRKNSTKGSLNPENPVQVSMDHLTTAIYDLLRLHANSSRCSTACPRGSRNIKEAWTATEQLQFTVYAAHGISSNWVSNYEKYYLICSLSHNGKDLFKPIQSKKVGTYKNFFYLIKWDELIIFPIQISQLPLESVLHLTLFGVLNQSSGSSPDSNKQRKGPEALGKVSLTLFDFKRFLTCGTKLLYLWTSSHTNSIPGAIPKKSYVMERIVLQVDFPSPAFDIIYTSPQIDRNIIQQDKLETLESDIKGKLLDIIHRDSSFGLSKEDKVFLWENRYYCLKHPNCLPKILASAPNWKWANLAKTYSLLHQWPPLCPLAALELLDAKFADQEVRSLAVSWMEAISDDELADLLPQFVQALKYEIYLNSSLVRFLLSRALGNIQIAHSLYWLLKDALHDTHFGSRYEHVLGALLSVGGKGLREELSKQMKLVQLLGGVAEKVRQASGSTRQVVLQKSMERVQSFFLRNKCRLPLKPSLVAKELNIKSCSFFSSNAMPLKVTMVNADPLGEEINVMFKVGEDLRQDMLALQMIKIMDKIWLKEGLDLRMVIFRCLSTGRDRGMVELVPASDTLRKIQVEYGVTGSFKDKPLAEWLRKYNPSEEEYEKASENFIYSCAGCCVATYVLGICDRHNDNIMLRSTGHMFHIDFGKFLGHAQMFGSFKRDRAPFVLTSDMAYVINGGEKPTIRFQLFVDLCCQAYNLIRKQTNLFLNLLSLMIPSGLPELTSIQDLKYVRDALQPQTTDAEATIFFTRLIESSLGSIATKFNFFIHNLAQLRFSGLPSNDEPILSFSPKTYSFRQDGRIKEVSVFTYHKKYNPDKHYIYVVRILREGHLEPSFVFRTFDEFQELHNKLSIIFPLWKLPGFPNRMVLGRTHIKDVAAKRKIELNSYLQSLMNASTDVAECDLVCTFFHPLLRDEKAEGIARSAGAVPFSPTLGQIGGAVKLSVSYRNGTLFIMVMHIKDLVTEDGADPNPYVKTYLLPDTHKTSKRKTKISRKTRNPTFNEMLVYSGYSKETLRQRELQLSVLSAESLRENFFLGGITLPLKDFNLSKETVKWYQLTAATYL

Columns and labels:
[1] = molecular target: wild-type GFP-ATG5 (mouse) (UniProt Q99J83); test: co-IP; GFP-Trap affinity isolates of lysates from GFP, WT GFP-ATG5 and GFP-ATG5 K130R atg5-/- MEFs after 1 h starvation, immunoblotting; lysis buffer 10 mM Tris, 150 mM NaCl, 0.5% Igepal CA-630, pH 7.5, 1 h at 4 °C
[2] = molecular target: wild-type GFP-ATG5 (mouse) (UniProt Q99J83); test: co-IP; GFP pull-downs from atg3-/- MEFs expressing the ATG5 constructs, immunoblotting (Fig. S3C)

| binding [1] | binding [2] | Substance |
| --- | --- | --- |
| binds | – | IGF2R/CI-M6PR (insulin-like growth factor 2 receptor) (from UniProt Q07113 36-2483) |
| binds | binds | PIK3C2A (phosphatidylinositol-4-phosphate 3-kinase catalytic subunit type 2 alpha) (from UniProt Q61194 1-1686) |
